The source of these data is PubChem BioAssay AID463193 (University of Pittsburgh Molecular Library Screening Center, 2010).

The list shows a part of the results.

A short description of the assay: GFP-LC3 puncta formation changes – imaging, high-content, MEF GFP-LC3, primary screen (AID 463193).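 Note: cell loss after 18 h compound exposure.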 The conditions noted are these: autophagy, measured here: cell loss, nuclei count, at 10 µM.
With `Cc1c(NP(C)(=O)Oc2ccc(C(C)C)cc2)c(=O)n(-c2ccccc2)n1C` (stereo not drawn), the toxicity is -0.868%.

Take `CC(C)CC(=O)NC(Sc1ccc(Cl)cc1)C(Cl)(Cl)Cl` (stereo not drawn): the toxicity turned out to be 1.54%.

For the molecule `O=[N+]([O-])c1cc([N+](=O)[O-])c(Nc2ccccn2)c([N+](=O)[O-])c1`, the toxicity came out at 10.9%. Turning to `Oc1ccccc1CNc1ccccn1`, the toxicity is -18.1%. Turning to `O=C(NC(Sc1ccncn1)C(Cl)(Cl)Cl)c1ccccc1` (stereo not drawn), the toxicity was 5.93%.

With `Cc1c2non([O-])c-2c(C)[n+](=O)[n+]1[O-]`, the toxicity is -1.29%. On to `CP(=O)(Nc1ccccn1)Oc1ccccc1` (stereo not drawn), for which the toxicity is -8.19%.

As to `COc1ccccc1OP(C)(=O)Nc1ccc(C)cc1C` (stereo not drawn), the toxicity is -4.29%. As to `CCc1ccc(OP(C)(=O)O)cc1`, the toxicity was found to be 3.47%.

Regarding `NC(=O)c1cc([N+](=O)[O-])cc([N+](=O)[O-])c1N`, the toxicity was -3.91%. Take `Cc1ccc(N/C(=N/P(=O)(N2CCOCC2)N2CCOCC2)N2CCOCC2)cc1`: the toxicity came out at 0.108%. As for `COc1ccccc1OP(=O)(Nc1ccc(C)cn1)Oc1ccccc1OC`, the toxicity is -12.7%.

Consider `COc1ccc(OP(C)(=O)Nc2ccccn2)cc1` (stereo not drawn), for which the toxicity worked out at 0.0206%. Consider `CN1CCCC(OC(=O)C(c2ccccc2)c2ccccc2)C1` (stereo not drawn), for which the toxicity came to 3.01%. With `Clc1ccc(Cl)c(NC2=NCC(CBr)S2)c1` (stereo not drawn), the toxicity was found to be 11.1%. Then `CN(C)CCOC(=O)C(O)(c1ccccc1)C1CCCC1` (stereo not drawn), with 24.9%; and `Cc1nc2ccc3ccccc3c2o1.O=[N+]([O-])c1cc([N+](=O)[O-])c(O)c([N+](=O)[O-])c1`, with -9.28%; and `CCN(N=Nc1nonc1N)c1nonc1N`, with 4.76%. For the molecule `CP(=O)(Nc1ccc(Cl)cc1Cl)Oc1ccccc1` (stereo not drawn), the toxicity is -0.18%. Take `CP(=O)(OCCOc1ccccc1)OCCOc1ccccc1`: the toxicity was -6.63%. In the case of `Cc1cc(C)cc(OP(C)(=O)Nc2cccc(C(F)(F)F)c2)c1` (stereo not drawn), the toxicity was determined as 12.3%. Turning to `Cc1cc(SC(NC(=O)c2ccc(F)cc2)C(Cl)(Cl)Cl)ncn1` (stereo not drawn), the toxicity is 5.75%.

Regarding `CCOP(=O)(Nc1ccccc1)OCC`, the toxicity was -35.6%. As to `COc1ccccc1OP(C)(=O)Nc1ccc(C)c(C)c1` (stereo not drawn), the toxicity was 14%.

For `COc1ccc(OP(C)(=O)Nc2ccccc2Br)cc1` (stereo not drawn), the toxicity was determined as 27.6%.

Take `O=[N+]([O-])c1ncn(CCn2ncnc2[N+](=O)[O-])n1`: the toxicity was -11.9%. For `CCOC(=O)c1ccc(NP(C)(=O)Oc2ccc(Cl)cc2)cc1` (stereo not drawn), the toxicity came out at 7.36%. Consider `CP(=O)(OC12CC3CC(CC(C3)C1)C2)OC12CC3CC(CC(C3)C1)C2`, for which the toxicity is -9.79%. For `COc1ccccc1OP(C)(=O)Nc1ccccc1Br` (stereo not drawn), the toxicity came out at 3.51%. The same measure for `CC(C)(C)c1ccc(OP(C)(=O)O)cc1`: 3.36%. Then `CCN(/C(=N/P(=O)(N1CCOCC1)N1CCOCC1)N1CCOCC1)c1ccc(OC)cc1`, with -0.905%; and `CP(=O)(Nc1ccc(Cl)cc1)Oc1ccc(F)cc1` (stereo not drawn), with 1.69%. Consider `CN(C)C(=O)c1c([N+](=O)[O-])cc([N+](=O)[O-])cc1[N+](=O)[O-]`, for which the toxicity worked out at 10.4%.

Turning to `CC(C)=N/N=C(\N)N[N+](=O)[O-]`, the toxicity was -16.4%. As for `CN(C)C(=O)OCCc1n(C)cc[n+]1C`, the toxicity was -12.4%.

Turning to `CC1CCN(C(=O)Oc2c(Cl)cc(Cl)c3cccnc23)CC1`, the toxicity is 12.9%. Regarding `CCN(CC)CC(O)COC(=O)C(O)(c1ccccc1)C1CCCCC1` (stereo not drawn), the toxicity amounted to 10.5%. Consider `COc1ccc(OP(C)(=O)Nc2ccc(Br)cc2)cc1` (stereo not drawn), for which the toxicity is 3.21%. For the molecule `COc1ccc(C2=NCC(CBr)S2)cc1` (stereo not drawn), the toxicity was -11.5%. Then `O=[N+]([O-])c1cccc2n[nH]nc12`, with -1.35%; and `CC(=O)N1C2C3N(C(C)=O)C1C1N(C(C)=O)C(C(N1C(C)=O)N3C(C)=O)N2C(C)=O`, with 4.11%; and `COc1ccccc1OP(C)(=O)Nc1c(C)n(C)n(-c2ccccc2)c1=O` (stereo not drawn), with 3.31%. Regarding `CP(=O)(Oc1ccccc1)N1CCOC1=O` (stereo not drawn), the toxicity amounted to 70.3%. Turning to `Cc1ccc(NP(=O)(Oc2ccccc2)Oc2ccccc2)nc1`, the toxicity worked out at 9.62%. The same measure for `CCc1ccc(OP(C)(=O)Nc2cccnc2)cc1` (stereo not drawn): 9.8%; for `CCc1nc2c(n1)c1c(non1O)c1c2no[n+]1[O-]`: 15.3%. With `O=[N+]([O-])c1cc([N+](=O)[O-])c(CCNc2ccccc2)c([N+](=O)[O-])c1`, the toxicity was 23.6%. The same measure for `CP(=O)(Nc1ccc2c(c1)OCCO2)Oc1ccccc1` (stereo not drawn): -3.33%; for `Cc1ccccc1NP(C)(=O)Nc1ccccc1C`: -6.89%; for `CC(C)C(=O)NC(Sc1ccccc1)C(Cl)(Cl)Cl` (stereo not drawn): 9.63%. For the molecule `O=P(Nc1nccs1)(c1ccccc1)c1ccccc1`, the toxicity is 1.15%. Turning to `CCOP(C)(=S)SCC(=O)NC(C)(CC)C(=O)O` (stereo not drawn), the toxicity was -1.17%. Consider `CC(=O)NC(SC(=S)N(C)C)C(Cl)(Cl)Cl` (stereo not drawn), for which the toxicity is -3.85%. Turning to `O=[N+]([O-])c1cc([N+](=O)[O-])c(NCC2CCS(=O)(=O)C2)c([N+](=O)[O-])c1` (stereo not drawn), the toxicity came out at 13.8%. As to `C(Cc1nn[nH]n1)Cc1nn[nH]n1`, the toxicity was -8.95%.

For `O=C(OC1CN2CCC1CC2)c1cccc(Cl)c1` (stereo not drawn), the toxicity worked out at 12.2%. The same measure for `COc1ccc(OP(C)(=O)Nc2cccc(Br)c2)cc1` (stereo not drawn): 25.9%. Then `O=P(Nc1ccccn1)(c1ccc(Br)cc1)c1ccc(Br)cc1`, with 12.1%.
